According to article PMC6896172, “Successful Targeting of the Warburg Effect in Prostate Cancer by Glucose-Conjugated 1,4-Naphthoquinones” (Cancers, 2019):
The source gives many values for each of these; only a part stands here.

Test system: 22Rv1 cells
Assay: Global proteome analysis (LC-MS/MS, DIA) of differentially expressed proteins
Assay type: cell-based, human
Description: 22Rv1 cells were seeded in T75 culture bottles (4 × 10^6 cells/bottle in 20 mL/bottle), treated for 48 h with the 5 µM of compound 11 or vehicle (DMSO), harvested by scratching, washed twice with ice-cold PBS and flash-frozen. Cells were lysed and sonicated. The protein extracts were then heat-denaturated, reduced, alkylated and digested by trypsin. Peptides were chromatographically separated using full recovery autosampler vials and a nano-UPLC system (Acquity, Waters Corporation, Milford, MS, USA), coupled via electrospray ionization (ESI) to a tandem mass spectrometer equipped with a quadrupole and an orbitrap (QExactive, Thermo Fisher Scientific, Bremen, Germany), using MS/MS mode in data dependent acquisition (DDA) and data independent acquisition (DIA). The peptides, analyzed with DDA-LC-MS/MS, were identified with the search engine Sequest, integrated in the Proteome Discoverer software version 2.0 (Thermo Fischer Scientific) using the human Uniprot protein database (EMBL; Hinxton Cambridge, UK, release December 2018). […] For the details of sample preparation and proceeding, data acquisition and analysis see the Supplementary information. […]
serum (FBS, Invitrogen) and 1% penicillin/streptomycin (Invitrogen)). […]
Cell lines were lysed in 100 mM triethylammonium bicarbonate and 1% w/v sodium deoxycholate buffer followed by probe sonication to destroy polynucleotides and heat induce protein denaturing at 99 °C for 5 min. Protein concentrations were estimated with a bicinchonic acid (BCA) protein assay (Thermo Fisher Scientific, Bremen, Germany). 20 µg of protein were reduced in presence of 10 mM dithiotreithol (Sigma Aldrich) for 30 min at 60 °C followed by cysteine alkylation with 20 mM iodo acetamide (Sigma Aldrich) for 30 min at 37 °C in the dark and enzymatic degradation with sequencing grade trypsin (Promega) over night at 37 °C. Digestion was quenched with 1% formic acid (FA), precipitated sodium deoxycholate removed by centrifugation for 5 min at 14,000 g and the supernatant was dried in a vacuum centrifuge.
LC-MS/MS in Data Dependent and Data Independent Mode
Samples were resuspended in 0.1% FA and transferred into a full recovery autosampler vial (Waters). Chromatographic separation was achieved on a nano -UPLC system (Acquity, Waters Corporation, Milford, MS, USA) with a two-buffer-system (buffer A: 0.1% FA in water, buffer B:
0.1% FA in Acetonitrile (ACN), both at pH = 3). Attached to the UPLC was a reversed -phase peptide trapping column (Symmetry C18, 180 µm × 20 mm, 100 Å pore size, 5 µm particle size) for desalting, followed by a reversed-phase capillary separation of the tryptic peptides (BEH C18; 75 µm × 200 mm, 130 Å pore size, 1.7 µm particle size), using a 60 min gradient with increasing ACN concentration from 2–30% ACN. The eluting peptides were analyzed on a quadrupole-orbitrap mass spectrometer (QExactive, Thermo Fisher Scientific, Bremen, Germany) in data dependent acquisition (DDA) and data independent acquisition (DIA) for quantification.
In DDA mode, one replicate of each cell line was randomly chosen and 1 µg per sample was used per LC-MS/MS run to build a reference spectral library used for data extraction of samples acquired in DIA mode. For DDA, the 12 most intense ions per precursor scan (1 × 10 6 ions, 70,000 Resolution, 120 ms fill time) were analyzed by MS/MS (HCD at 25 normalized collision energy, 1 × 105 ions, 17,500 Resolution, 50 ms fill time) in a range of 400–1300 m/z. A dynamic precursor exclusion of 20 s was used. For DIA, 1 µg of each sample was analyzed using a 30 sequential 20 Da fixed window method covering the mass range from 400 –1000 m/z. Per cycle, 2 precursor scans (1 × […]
28 normalized collision energy, 1 × 106 ions, 17,500 Resolution, 50 ms fill time) were performed.
After the first precursor scan, 15 MS/MS scans were performed covering the precursor mass range from 400–700 m/z followed by the second precursor scan and another 15 MS/MS scans ranging from […]
LC-MS/MS Data Processing and Analysis […]

With `CC1(C)OC2OC(C(O)COC3=CC(=O)c4cccc(O)c4C3=O)C(O)C2O1` (centres unmarked) [Compound 11] the “Fold change (treated / control)” value (RPB2_HUMAN P30876) was 0.4541, the “Fold change (treated / control)” value (RS2_HUMAN P15880) was 0.6402 and the “Fold change (treated / control)” value (RS4X_HUMAN P62701) was 0.7316. For the same molecule, the “Fold change (treated / control)” value (RS6_HUMAN P62753) was 0.6108, the “Fold change (treated / control)” value (RS8_HUMAN P62241) was 0.7705 and the “Fold change (treated / control)” value (RS9_HUMAN P46781) was 0.6218. The “Fold change (treated / control)” value (RS14_HUMAN P62263) was 0.6832, the “Fold change (treated / control)” value (RS25_HUMAN P62851) was 0.7448 and the “Fold change (treated / control)” value (RS26_HUMAN P62854) was 1.219. The “Fold change (treated / control)” value (RSSA_HUMAN P08865) was 1.1957, the “Fold change (treated / control)” value (RT07_HUMAN Q9Y2R9) was 0.6784 and the “Fold change (treated / control)” value (RT18A_HUMAN Q9NVS2) was 0.5156. The “Fold change (treated / control)” value (RT18B_HUMAN Q9Y676) was 0.3594, the “Fold change (treated / control)” value (RT23_HUMAN Q9Y3D9) was 0.4341 and the “Fold change (treated / control)” value (RT28_HUMAN Q9Y2Q9) was 0.6729. For the same molecule, the “Fold change (treated / control)” value (RT34_HUMAN P82930) was 0.3998, the “Fold change (treated / control)” value (RUVB2_HUMAN Q9Y230) was 1.4609 and the “Fold change (treated / control)” value (RUXE_HUMAN P62304) was 1.231. For the same molecule, the “Fold change (treated / control)” value (S10AA_HUMAN P60903) was 1.922, the “Fold change (treated / control)” value (S10AB_HUMAN P31949) was 2.04 and the “Fold change (treated / control)” value (S35B2_HUMAN Q8TB61) was 0.6783. The “Fold change (treated / control)” value (SAAL1_HUMAN Q96ER3) was 1.66, the “Fold change (treated / control)” value (SC11A_HUMAN P67812) was 1.161 and the “Fold change (treated / control)” value (SC22B_HUMAN O75396) was 1.1956. The “Fold change (treated / control)” value (SCMC1_HUMAN Q6NUK1) was 2.011, the “Fold change (treated / control)” value (SCNAA_HUMAN Q9Y5Y9) was 2.03 and the “Fold change (treated / control)” value (SDHB_HUMAN P21912) was 0.4112. For the same molecule, the “Fold change (treated / control)” value (SERA_HUMAN O43175) was 1.526, the “Fold change (treated / control)” value (SERC1_HUMAN Q9NRX5) was 0.3307 and the “Fold change (treated / control)” value (SERC_HUMAN Q9Y617) was 1.605. The “Fold change (treated / control)” value (SERPH_HUMAN P50454) was 1.3, the “Fold change (treated / control)” value (SF3B1_HUMAN O75533) was 0.8384 and the “Fold change (treated / control)” value (SF3B3_HUMAN Q15393) was 1.136. For the same molecule, the “Fold change (treated / control)” value (SGT1_HUMAN Q9Y2Z0) was 1.144, the “Fold change (treated / control)” value (SH3L3_HUMAN Q9H299) was 1.647 and the “Fold change (treated / control)” value (SIGIR_HUMAN Q6IA17) was 0.5907. For the same molecule, the “Fold change (treated / control)” value (SLD5_HUMAN Q9BRT9) was 0.7628, the “Fold change (treated / control)” value (SMC1A_HUMAN Q14683) was 0.7088 and the “Fold change (treated / control)” value (SMCA5_HUMAN O60264) was 0.6602. The “Fold change (treated / control)” value (SMD1_HUMAN P62314) was 0.7686, the “Fold change (treated / control)” value (SMD3_HUMAN P62318) was 1.357 and the “Fold change (treated / control)” value (SMN_HUMAN Q16637) was 1.477. The “Fold change (treated / control)” value (SMRC1_HUMAN Q92922) was 0.6541, the “Fold change (treated / control)” value (SMRC2_HUMAN Q8TAQ2) was 0.751 and the “Fold change (treated / control)” value (SND1_HUMAN Q7KZF4) was 0.6826. For the same molecule, the “Fold change (treated / control)” value (SNF5_HUMAN Q12824) was 0.7197, the “Fold change (treated / control)” value (SNX6_HUMAN Q9UNH7) was 1.781 and the “Fold change (treated / control)” value (SP16H_HUMAN Q9Y5B9) was 0.7259. For the same molecule, the “Fold change (treated / control)” value (SPB6_HUMAN P35237) was 1.403, the “Fold change (treated / control)” value (SQSTM_HUMAN Q13501) was 3.787 and the “Fold change (treated / control)” value (SRPRB_HUMAN Q9Y5M8) was 1.285. For the same molecule, the “Fold change (treated / control)” value (SRS11_HUMAN Q05519) was 1.174, the “Fold change (treated / control)” value (SRSF1_HUMAN Q07955) was 1.167 and the “Fold change (treated / control)” value (SRSF2_HUMAN Q01130) was 1.282. For the same molecule, the “Fold change (treated / control)” value (SRSF3_HUMAN P84103) was 1.2459, the “Fold change (treated / control)” value (SRSF7_HUMAN Q16629) was 1.187 and the “Fold change (treated / control)” value (SRSF9_HUMAN Q13242) was 1.1541. The “Fold change (treated / control)” value (SSA27_HUMAN O60232) was 1.222, the “Fold change (treated / control)” value (SSBP_HUMAN Q04837) was 1.4708 and the “Fold change (treated / control)” value (STEA2_HUMAN Q8NFT2) was 0.3512. For the same molecule, the “Fold change (treated / control)” value (STRBP_HUMAN Q96SI9) was 0.6608, the “Fold change (treated / control)” value (STXB2_HUMAN Q15833) was 1.385 and the “Fold change (treated / control)” value (SUCB2_HUMAN Q96I99) was 0.8543. For the same molecule, the “Fold change (treated / control)” value (SUMO2_HUMAN P61956) was 0.1159, the “Fold change (treated / control)” value (SUOX_HUMAN P51687) was 0.6055 and the “Fold change (treated / control)” value (SYAC_HUMAN P49588) was 0.5085. For the same molecule, the “Fold change (treated / control)” value (SYAM_HUMAN Q5JTZ9) was 0.5065, the “Fold change (treated / control)” value (SYDM_HUMAN Q6PI48) was 0.6768 and the “Fold change (treated / control)” value (SYF1_HUMAN Q9HCS7) was 0.4892. For the same molecule, the “Fold change (treated / control)” value (SYK_HUMAN Q15046) was 1.395, the “Fold change (treated / control)” value (SYNC_HUMAN O43776) was 1.304 and the “Fold change (treated / control)” value (SYSC_HUMAN P49591) was 1.667. For the same molecule, the “Fold change (treated / control)” value (SYTM_HUMAN Q9BW92) was 0.4662, the “Fold change (treated / control)” value (SYWC_HUMAN P23381) was 1.1947 and the “Fold change (treated / control)” value (T2FA_HUMAN P35269) was 1.489. For the same molecule, the “Fold change (treated / control)” value (TAGL2_HUMAN P37802) was 1.304, the “Fold change (treated / control)” value (TB182_HUMAN Q9C0C2) was 1.469 and the “Fold change (treated / control)” value (TBA4A_HUMAN P68366) was 1.5598. For the same molecule, the “Fold change (treated / control)” value (TCPB_HUMAN P78371) was 1.22, the “Fold change (treated / control)” value (TCPG_HUMAN P49368) was 1.0981 and the “Fold change (treated / control)” value (TCPQ_HUMAN P50990) was 1.157. For the same molecule, the “Fold change (treated / control)” value (TCTP_HUMAN P13693) was 1.49, the “Fold change (treated / control)” value (TEBP_HUMAN Q15185) was 0.8374 and the “Fold change (treated / control)” value (TECR_HUMAN Q9NZ01) was 0.7078. For the same molecule, the “Fold change (treated / control)” value (TERA_HUMAN P55072) was 1.244, the “Fold change (treated / control)” value (TES_HUMAN Q9UGI8) was 2.179 and the “Fold change (treated / control)” value (TF3C5_HUMAN Q9Y5Q8) was 0.6483. The “Fold change (treated / control)” value (THIC_HUMAN Q9BWD1) was 1.469, the “Fold change (treated / control)” value (THIL_HUMAN P24752) was 0.7393 and the “Fold change (treated / control)” value (THTR_HUMAN Q16762) was 0.4968. For the same molecule, the “Fold change (treated / control)” value (TIF1B_HUMAN Q13263) was 0.901, the “Fold change (treated / control)” value (TIM8B_HUMAN Q9Y5J9) was 0.3123 and the “Fold change (treated / control)” value (TIM13_HUMAN Q9Y5L4) was 0.5414. The “Fold change (treated / control)” value (TM109_HUMAN Q9BVC6) was 1.24, the “Fold change (treated / control)” value (TM205_HUMAN Q6UW68) was 0.723 and the “Fold change (treated / control)” value (TMCO1_HUMAN Q9UM00) was 1.491. The “Fold change (treated / control)” value (TMED1_HUMAN Q13445) was 1.494, the “Fold change (treated / control)” value (TMM43_HUMAN Q9BTV4) was 2.013 and the “Fold change (treated / control)” value (TMOD3_HUMAN Q9NYL9) was 1.3151. For the same molecule, the “Fold change (treated / control)” value (TMX1_HUMAN Q9H3N1) was 0.7963 and the “Fold change (treated / control)” value (TOIP1_HUMAN Q5JTV8) was 1.681.
